Assay results as given in patent US9360471B2, “Anti-aging agents and methods to identify them” (priority 2009, dated 2016).
At least one compound was matched to its structure with a doubt left.

Assays:
cdc13-1 cells = assay: DNA content / cell cycle FACS analysis after cdc13-1p inactivation; format: cell-based, budding yeast; conditions: rapamycin 1 nM, 37° C.
Experimental: (A) Cells were incubated at 37° C. to inactivated cdc13-1p, in YEPD medium, YEPD+1 nM rapamycin or YEPD with 0.5% glucose. At the indicated time points, an aliquot of cells was taken out and fixed with 50% ethanol at −20° C. for about 4 hrs, and then digested with 0.2 mg/mL RNase A in 50 mM Tris pH 7.6 at 37° C. overnight. The cells were next washed with 50 mM Tris pH 7.6 and treated with 40 μg/mL proteinase K at 55° C. for 2 hrs. After being washed again, cells were stained with 100 μg/mL propidium iodide for 20 min in the dark prior to FACS (Fluorescence activated cell sorter) analysis. […] Cells were incubated at 37° C. for 2 hours first, then diluted with a 37° C.-YEPD medium, YEPD with rapamycin to make a final concentration of 1 nM, or with a 37° C.-medium without glucose to make final 0.5% glucose. The cells were continuously incubated at 37° C. for 22 hrs. Surviving cells were counted using the colony formation assay.

[1] = system: senescent WI-38 cells (human primary fibroblast); assay: loss of senescent WI-38 cells, β-galactosidase (X-gal) staining; format: cell-based; conditions: 56 days in senescence; 50 pM rapamycin, 250 μM AICAR, 20 μg/mL EGCG, 1.6 μg/mL GSE, 20 μg/mL bilberry extract, 1 μM AITC, 12.5 μM 2-deoxyglucose; 3-day-on/7-day-off (AICAR 2-day-on/8-day-off)
Experimental: AICAR and reduced glucose treatment were incubated with cells in a 2-day-on/8-day-off cycle, while the rest of agents were in a 3-day-on/7-day-off cycle. The treatment started at passage 29. The medium was refreshed every 3 days. After 56-days from passage 31 (senescence), the cells were briefly fixed in 2% formaldehyde/0.2% glutaraldehyde and stained with 1 mg/mL 5-bromo-4-chloro-3-indolyl β-D-galactoside (X-gal) (in buffer containing 40 mM citric acid/sodium phosphate, pH 6.0, 5 mM potassium ferrocyanide, 5 mM potassium ferricyanide, 150 mM NaCl, and 2 mM MgCl2) at 37° C. for 18 hrs for the senescence marker, cellular β-galactosidase activity (blue in color picture and dark grey in black/white picture). Surviving senescent cells were viewed under a microscope.
This invention discloses that CR or rapamycin also prolongs senescence and prevents cell death induced by telomere dysfunction in human cells. Primary human embryonic lung fibroblasts WI-38 were used. […] Cells at passage 29 were treated with 50 pM rapamycin. The treatment was on a 10-day cycle of 3-day with and 7-day without rapamycin (also termed as 3-day-on/7-day-off cycle). […] Due to increased cytosol β-galactosidase activity, senescent cells are stained a blue color (shown as dark grey in black/white picture). […] Rapamycin didn't transform cells since the senescence marker was still present and cell growth was not observed.

p53, p21 and pRB = assay: Western blotting of senescence pathway proteins in senescent WI-38 cells; format: cell-based, human; conditions: 18 hrs
NIH3T3 cells = assay: TPA-induced transformation of NIH3T3 cells, colony formation in soft agar; format: cell-based, mouse
Experimental: (A) TPA (10 μM) was incubated with NIH3T3 cells in 0.39% soft agar in the presence of DMSO, 1 nM rapamycin, or 250 nM AICAR, and cultured for 7 days prior to counting colonies under a microscope. (B) The data represents the average of four experiments.
The experiment was done as in Example 19. In brief, 1500 NIH3T3 cells were mixed with 50 μL, of 0.4% agarose in culture medium (basal medium with 10% bovine fetal serum), layered on 96-well plates pre-covered with 50 μL of 0.8% agarose in culture medium. 100 μL of culture medium containing drugs to make final DMSO, 10 μM TPA, 40 μM AICAR, or 10 μM TPA+[…] was then added into the wells. The cells were incubated in a 37° C. incubator with 5% CO2 for more than 7 days. 50 μL of fresh medium was added every 5 days. Colonies were then counted under a microscope.
Transformation of NIH 3T3 cells is a good in vitro tumorigenesis assay, which measures colony formation in soft agar (termed as anchorage-independent growth). The […] TPA (12-O-Tetradecanoylphorbol 13-acetate) is known to stimulate protein kinase C (PKC), activate oncogenes and transform mouse embryonic fibroblast NIH3T3 cells. The TPA-induced anchorage-independent growth of NIH3T3 cell was employed as a tumorigenesis assay. […] Colonies were then counted under a microscope. […]

SHR-SP rats = conditions: rapamycin at a normal dose of 1 mg/kg, as reported in the literature (Sharkey and Butcher 1994); cited from earlier work
fruit fly = conditions: rapamycin at the therapeutic dose; cited from earlier work
mice = conditions: therapeutic dose of rapamycin (7.5 mg/kg) (Malagelada 2010); cited from earlier work

CO[C@H]1C[C@@H]2CC[C@@H](C)[C@@](O)(O2)C(=O)C(=O)N2CCCC[C@H]2C(=O)O[C@H]([C@H](C)C[C@@H]2CC[C@@H](O)[C@H](OC)C2)CC(=O)[C@H](C)/C=C(\C)[C@@H](O)[C@@H](OC)C(=O)[C@H](C)C[C@H](C)/C=C/C=C/C=C/1C [rapamycin]
>2N DNA content (cdc13-1 cells): inhibited the increase of >2N DNA content
loss of the senescent WI-38 cells [1]: prevented
protein levels of p53, p21 and pRB (p53, p21 and pRB; rapamycin 50 pM and 100 pM): increased the levels of the key senescence proteins p53, p21 and pRB
protein levels of p53, p21 and pRB (p53, p21 and pRB; rapamycin 2000 pM): not by the higher dose
growth rate of NIH3T3 (NIH3T3 cells; 1 nM rapamycin): slightly slowed down the growth rate
transformation of NIH 3T3 cells induced by TPA (colonies in soft agar) (NIH3T3 cells; 10 μM TPA+1 nM rapamycin, more than 7 days, same after 21 days): eliminated transformation
infarction volume induced by MCA occlusion (SHR-SP rats): did not have this effect
life-span extension (fruit fly): ~10%
effect on Parkinson's disease in a mice model (mice): effective for Parkinson's disease
